Data source: PubChem BioAssay AID652272 (Drosophila RNAi Screening Center, 2013)

- Assay: 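Finding fly genes that regulate Hedgehog signal transduction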 (primary screen)
- Cell system: Drosophila clone 8 (Cl8) cells
- Knock-down reagent: long dsRNA against Drosophila genes
- Measurement: 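Plate reader light from a firefly reporter under a ptc promoter fragment that responds to Hedgehog, with Renilla light as transfection reference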
- Direction: firefly Hh reporter signal: higher = more ptc reporter light; Renilla reference signal: higher = more Renilla control light
- Active means: 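Hit when the z-score averaged over two replicates is under -2 or over +3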
- Calls: active = hit: reporter lowered or raised; inactive = not a hit
In all, the deposit lists about 21,000 reagents; this is an unselected part of those that have a named target and a result. Of all reagents, 503 (2.4%) are marked active. 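Raw plate light values, not normalised; calls rest on replicate z-scores that were not deposited; hits include reporter decreases as well as increases.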 Entries without a mark were called inactive. Reagent sequences are not shown. The record does not give: the amount of reagent, the time to read-out.

CG6012 [DRSC02921] scored firefly Hh reporter signal, replicate 1 = 96611; firefly Hh reporter signal, replicate 2 = 72353; Renilla reference signal, replicate 1 = 2518; Renilla reference signal, replicate 2 = 5771.
CG7402 [DRSC10839] showed firefly Hh reporter signal, replicate 1 = 1.33e5; Renilla reference signal, replicate 1 = 2480; Renilla reference signal, replicate 2 = 6203.
CG10317 [DRSC14229] scored firefly Hh reporter signal, replicate 1 = 1.07e5; firefly Hh reporter signal, replicate 2 = 92268; Renilla reference signal, replicate 1 = 2443; Renilla reference signal, replicate 2 = 2356.
For Tango9 (Transport and Golgi organization 9) [DRSC14173], the entry reads firefly Hh reporter signal, replicate 1 = 1.37e5; firefly Hh reporter signal, replicate 2 = 1.03e5; Renilla reference signal, replicate 1 = 5142; Renilla reference signal, replicate 2 = 4336.
For CG3701 (retired record) [DRSC04408] the deposit lists firefly Hh reporter signal, replicate 1 = 79043; firefly Hh reporter signal, replicate 2 = 81680; Renilla reference signal, replicate 1 = 1218; Renilla reference signal, replicate 2 = 6944.
Against CG3701 (retired record) [DRSC04409], the entry reads firefly Hh reporter signal, replicate 1 = 63383; firefly Hh reporter signal, replicate 2 = 68532; Renilla reference signal, replicate 1 = 1011; Renilla reference signal, replicate 2 = 6306.
Tim8 [DRSC20291] scored firefly Hh reporter signal, replicate 1 = 1.23e5; firefly Hh reporter signal, replicate 2 = 4.05e5; Renilla reference signal, replicate 1 = 4245; Renilla reference signal, replicate 2 = 13481.
Acp65Aa (Adult cuticle protein 65Aa) [DRSC09663] showed firefly Hh reporter signal, replicate 1 = 36909; firefly Hh reporter signal, replicate 2 = 59511; Renilla reference signal, replicate 1 = 4411; Renilla reference signal, replicate 2 = 4150.
yip7 (yippee interacting protein 7) [DRSC11410] gave firefly Hh reporter signal, replicate 1 = 47096; firefly Hh reporter signal, replicate 2 = 45957; Renilla reference signal, replicate 1 = 5514; Renilla reference signal, replicate 2 = 3229.

Copied from the list:
Value for CG3701 (retired record) [DRSC04409] under “firefly Hh reporter signal, replicate 1”: 63383
For “firefly Hh reporter signal, replicate 1”, Acp65Aa (Adult cuticle protein 65Aa) [DRSC09663] shows 36909
Result of CG7402 [DRSC10839] under “firefly Hh reporter signal, replicate 1”: 1.33e5

The listing continues.
RpLP0 (Ribosomal protein LP0) [DRSC11878] gave firefly Hh reporter signal, replicate 1 = 72009 (active); firefly Hh reporter signal, replicate 2 = 69383; Renilla reference signal, replicate 1 = 2754; Renilla reference signal, replicate 2 = 3893.
Against Inx5 (Innexin 5) [DRSC20051] the deposit lists firefly Hh reporter signal, replicate 1 = 67222; firefly Hh reporter signal, replicate 2 = 2.03e5; Renilla reference signal, replicate 1 = 1512; Renilla reference signal, replicate 2 = 7928.
Depletion of CG9593 [DRSC16508] resulted in: firefly Hh reporter signal, replicate 1 = 86372; firefly Hh reporter signal, replicate 2 = 78679; Renilla reference signal, replicate 1 = 2432; Renilla reference signal, replicate 2 = 2082.
For CG9518 [DRSC20194] the deposit lists firefly Hh reporter signal, replicate 1 = 72340; firefly Hh reporter signal, replicate 2 = 1.61e5; Renilla reference signal, replicate 1 = 1856; Renilla reference signal, replicate 2 = 6544.
fne (found in neurons) [DRSC20332] gave firefly Hh reporter signal, replicate 1 = 49409; firefly Hh reporter signal, replicate 2 = 1.88e5; Renilla reference signal, replicate 1 = 1477; Renilla reference signal, replicate 2 = 6882.
Silencing of CG2519 [DRSC12312] resulted in: firefly Hh reporter signal, replicate 1 = 1.11e5; firefly Hh reporter signal, replicate 2 = 56096; Renilla reference signal, replicate 1 = 4330; Renilla reference signal, replicate 2 = 2101.
Against mxt (mextli) [DRSC00551], the values are firefly Hh reporter signal, replicate 1 = 58540; firefly Hh reporter signal, replicate 2 = 76848; Renilla reference signal, replicate 1 = 3081; Renilla reference signal, replicate 2 = 3112.
arm (armadillo) [DRSC18738] gave firefly Hh reporter signal, replicate 1 = 1.08e5; firefly Hh reporter signal, replicate 2 = 81223; Renilla reference signal, replicate 1 = 2933; Renilla reference signal, replicate 2 = 3156.
Atg17 (Autophagy-related 17) [DRSC12221] gave firefly Hh reporter signal, replicate 1 = 93877; firefly Hh reporter signal, replicate 2 = 1.40e5; Renilla reference signal, replicate 1 = 3649; Renilla reference signal, replicate 2 = 4445.
Knock-down of CG7747 [DRSC07038] gave: firefly Hh reporter signal, replicate 1 = 1.11e5; firefly Hh reporter signal, replicate 2 = 78973; Renilla reference signal, replicate 1 = 4880; Renilla reference signal, replicate 2 = 3834.
With knock-down of BckdhB (Branched chain keto acid dehydrogenase E1 subunit beta) [DRSC21183], the screen gave firefly Hh reporter signal, replicate 1 = 87490; firefly Hh reporter signal, replicate 2 = 1.64e5; Renilla reference signal, replicate 1 = 2218; Renilla reference signal, replicate 2 = 7296.
Depletion of Torsin [DRSC18570] gave: firefly Hh reporter signal, replicate 1 = 4.91e5; firefly Hh reporter signal, replicate 2 = 4.81e5; firefly Hh reporter signal, replicate 3 = 69312; Renilla reference signal, replicate 1 = 3041; Renilla reference signal, replicate 2 = 2496.
Against Trap1 [DRSC05019], the values are firefly Hh reporter signal, replicate 1 = 1.71e5; firefly Hh reporter signal, replicate 2 = 1.36e5; Renilla reference signal, replicate 1 = 6981; Renilla reference signal, replicate 2 = 5120.
With knock-down of CG10660 [DRSC09769], the screen gave firefly Hh reporter signal, replicate 1 = 87191; firefly Hh reporter signal, replicate 2 = 16183; firefly Hh reporter signal, replicate 3 = 12555; Renilla reference signal, replicate 1 = 1847; Renilla reference signal, replicate 2 = 248.
Depletion of Gr66a (Gustatory receptor 66a) [DRSC10783] gave: firefly Hh reporter signal, replicate 1 = 46541; firefly Hh reporter signal, replicate 2 = 49034; Renilla reference signal, replicate 1 = 3794; Renilla reference signal, replicate 2 = 4029.
Mp20 (Muscle protein 20) [DRSC07474] showed firefly Hh reporter signal, replicate 1 = 91128; firefly Hh reporter signal, replicate 2 = 56963; Renilla reference signal, replicate 1 = 2306; Renilla reference signal, replicate 2 = 3916.
For Ankle2 [DRSC20105], the values are firefly Hh reporter signal, replicate 1 = 1.75e5; firefly Hh reporter signal, replicate 2 = 1.39e5; Renilla reference signal, replicate 1 = 3612; Renilla reference signal, replicate 2 = 3092.
For Ankle2 [DRSC20106], the entry reads firefly Hh reporter signal, replicate 1 = 79704; firefly Hh reporter signal, replicate 2 = 4.04e5; Renilla reference signal, replicate 1 = 2080; Renilla reference signal, replicate 2 = 14122.
